Laboratory results from patent US20190300589A1.
Results are given in words; binding and its absence hold for the method and conditions named. Some results given as binding are weak or reduced against the parent protein; the word gives no strength.

T1: human plasma derived Factor H (hFH) (human), P08603
T1 chain: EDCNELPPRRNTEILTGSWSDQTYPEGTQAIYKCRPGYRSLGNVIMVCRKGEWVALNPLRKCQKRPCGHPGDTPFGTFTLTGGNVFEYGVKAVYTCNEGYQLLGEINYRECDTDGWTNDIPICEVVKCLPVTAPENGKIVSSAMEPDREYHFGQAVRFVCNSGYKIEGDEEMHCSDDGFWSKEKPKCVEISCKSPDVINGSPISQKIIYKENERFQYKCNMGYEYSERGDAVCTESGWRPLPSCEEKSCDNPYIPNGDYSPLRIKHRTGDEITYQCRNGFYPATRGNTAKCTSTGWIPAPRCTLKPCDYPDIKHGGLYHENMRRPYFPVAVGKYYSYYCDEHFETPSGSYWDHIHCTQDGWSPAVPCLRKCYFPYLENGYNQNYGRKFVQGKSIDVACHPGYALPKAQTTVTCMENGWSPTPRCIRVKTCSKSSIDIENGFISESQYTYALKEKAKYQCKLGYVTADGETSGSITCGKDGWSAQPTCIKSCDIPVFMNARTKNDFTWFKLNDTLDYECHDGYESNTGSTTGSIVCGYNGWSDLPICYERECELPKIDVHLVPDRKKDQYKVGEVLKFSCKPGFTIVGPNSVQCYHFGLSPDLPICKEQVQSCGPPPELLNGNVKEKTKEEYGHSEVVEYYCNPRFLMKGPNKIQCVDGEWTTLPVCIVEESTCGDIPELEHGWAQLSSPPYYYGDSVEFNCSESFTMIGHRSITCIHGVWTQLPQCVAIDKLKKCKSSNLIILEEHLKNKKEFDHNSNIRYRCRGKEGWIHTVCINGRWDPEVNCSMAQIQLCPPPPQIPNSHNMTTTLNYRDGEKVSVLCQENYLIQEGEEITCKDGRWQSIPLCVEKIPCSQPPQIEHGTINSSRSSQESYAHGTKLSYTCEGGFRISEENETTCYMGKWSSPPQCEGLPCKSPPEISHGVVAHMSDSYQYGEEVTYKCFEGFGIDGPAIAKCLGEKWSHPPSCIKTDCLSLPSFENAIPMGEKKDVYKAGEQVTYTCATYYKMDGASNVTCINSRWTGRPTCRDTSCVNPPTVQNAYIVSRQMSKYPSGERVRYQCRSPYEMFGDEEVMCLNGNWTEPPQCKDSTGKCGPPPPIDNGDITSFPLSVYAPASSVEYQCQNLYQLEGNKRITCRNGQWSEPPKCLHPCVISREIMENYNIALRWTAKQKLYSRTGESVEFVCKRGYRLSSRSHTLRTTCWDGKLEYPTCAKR


Key:
[1] = biological target: T1, human plasma derived Factor H (hFH) …; assay: size exclusion chromatography (Superdex 200 10/300 GL), self-association; details: remark: other sources report otherwise
[2] = biological target: C5 (complement component C5), P01031; assay: ELISA, FHR1 immobilised, C5 in solution; details: remark: other sources report otherwise

Binder	binding [1]	binding [2]
human plasma derived Factor H (hFH), P08603 19-1231 (protein) EDCNELPPRRNTEILTGSWSDQTYPEGTQAIYKCRPGYRSLGNVIMVCRKGEWVALNPLRKCQKRPCGHPGDTPFGTFTLTGGNVFEYGVKAVYTCNEGYQLLGEINYRECDTDGWTNDIPICEVVKCLPVTAPENGKIVSSAMEPDREYHFGQAVRFVCNSGYKIEGDEEMHCSDDGFWSKEKPKCVEISCKSPDVINGSPISQKIIYKENERFQYKCNMGYEYSERGDAVCTESGWRPLPSCEEKSCDNPYIPNGDYSPLRIKHRTGDEITYQCRNGFYPATRGNTAKCTSTGWIPAPRCTLKPCDYPDIKHGGLYHENMRRPYFPVAVGKYYSYYCDEHFETPSGSYWDHIHCTQDGWSPAVPCLRKCYFPYLENGYNQNYGRKFVQGKSIDVACHPGYALPKAQTTVTCMENGWSPTPRCIRVKTCSKSSIDIENGFISESQYTYALKEKAKYQCKLGYVTADGETSGSITCGKDGWSAQPTCIKSCDIPVFMNARTKNDFTWFKLNDTLDYECHDGYESNTGSTTGSIVCGYNGWSDLPICYERECELPKIDVHLVPDRKKDQYKVGEVLKFSCKPGFTIVGPNSVQCYHFGLSPDLPICKEQVQSCGPPPELLNGNVKEKTKEEYGHSEVVEYYCNPRFLMKGPNKIQCVDGEWTTLPVCIVEESTCGDIPELEHGWAQLSSPPYYYGDSVEFNCSESFTMIGHRSITCIHGVWTQLPQCVAIDKLKKCKSSNLIILEEHLKNKKEFDHNSNIRYRCRGKEGWIHTVCINGRWDPEVNCSMAQIQLCPPPPQIPNSHNMTTTLNYRDGEKVSVLCQENYLIQEGEEITCKDGRWQSIPLCVEKIPCSQPPQIEHGTINSSRSSQESYAHGTKLSYTCEGGFRISEENETTCYMGKWSSPPQCEGLPCKSPPEISHGVVAHMSDSYQYGEEVTYKCFEGFGIDGPAIAKCLGEKWSHPPSCIKTDCLSLPSFENAIPMGEKKDVYKAGEQVTYTCATYYKMDGASNVTCINSRWTGRPTCRDTSCVNPPTVQNAYIVSRQMSKYPSGERVRYQCRSPYEMFGDEEVMCLNGNWTEPPQCKDSTGKCGPPPPIDNGDITSFPLSVYAPASSVEYQCQNLYQLEGNKRITCRNGQWSEPPKCLHPCVISREIMENYNIALRWTAKQKLYSRTGESVEFVCKRGYRLSSRSHTLRTTCWDGKLEYPTCAKR	binds	
full length FHR1 (Factor H-related protein 1), Q03591 19-330 (protein) EATFCDFPKINHGILYDEEKYKPFSQVPTGEVFYYSCEYNFVSPSKSFWTRITCTEEGWSPTPKCLRLCFFPFVENGHSESSGQTHLEGDTVQIICNTGYRLQNNENNISCVERGWSTPPKCRSTDTSCVNPPTVQNAHILSRQMSKYPSGERVRYECRSPYEMFGDEEVMCLNGNWTEPPQCKDSTGKCGPPPPIDNGDITSFPLSVYAPASSVEYQCQNLYQLEGNKRITCRNGQWSEPPKCLHPCVISREIMENYNIALRWTAKQKLYLRTGESAEFVCKRGYRLSSRSHTLRTTCWDGKLEYPTCAKR		binds
